# Measurements from the supplement of paper PMC11732987, “Enantioselective OTUD7B fragment discovery through chemoproteomics screening and high-throughput optimisation” (Communications Chemistry, 2025).
# The chains behind the UniProt entries cited, without tags or fusion partners. Where a name states a change or a piece, a line headed by the entry shows the natural chain unless it says otherwise. Residues count along the entry.
# UniProt Q6UVK1, whole entry, looked up: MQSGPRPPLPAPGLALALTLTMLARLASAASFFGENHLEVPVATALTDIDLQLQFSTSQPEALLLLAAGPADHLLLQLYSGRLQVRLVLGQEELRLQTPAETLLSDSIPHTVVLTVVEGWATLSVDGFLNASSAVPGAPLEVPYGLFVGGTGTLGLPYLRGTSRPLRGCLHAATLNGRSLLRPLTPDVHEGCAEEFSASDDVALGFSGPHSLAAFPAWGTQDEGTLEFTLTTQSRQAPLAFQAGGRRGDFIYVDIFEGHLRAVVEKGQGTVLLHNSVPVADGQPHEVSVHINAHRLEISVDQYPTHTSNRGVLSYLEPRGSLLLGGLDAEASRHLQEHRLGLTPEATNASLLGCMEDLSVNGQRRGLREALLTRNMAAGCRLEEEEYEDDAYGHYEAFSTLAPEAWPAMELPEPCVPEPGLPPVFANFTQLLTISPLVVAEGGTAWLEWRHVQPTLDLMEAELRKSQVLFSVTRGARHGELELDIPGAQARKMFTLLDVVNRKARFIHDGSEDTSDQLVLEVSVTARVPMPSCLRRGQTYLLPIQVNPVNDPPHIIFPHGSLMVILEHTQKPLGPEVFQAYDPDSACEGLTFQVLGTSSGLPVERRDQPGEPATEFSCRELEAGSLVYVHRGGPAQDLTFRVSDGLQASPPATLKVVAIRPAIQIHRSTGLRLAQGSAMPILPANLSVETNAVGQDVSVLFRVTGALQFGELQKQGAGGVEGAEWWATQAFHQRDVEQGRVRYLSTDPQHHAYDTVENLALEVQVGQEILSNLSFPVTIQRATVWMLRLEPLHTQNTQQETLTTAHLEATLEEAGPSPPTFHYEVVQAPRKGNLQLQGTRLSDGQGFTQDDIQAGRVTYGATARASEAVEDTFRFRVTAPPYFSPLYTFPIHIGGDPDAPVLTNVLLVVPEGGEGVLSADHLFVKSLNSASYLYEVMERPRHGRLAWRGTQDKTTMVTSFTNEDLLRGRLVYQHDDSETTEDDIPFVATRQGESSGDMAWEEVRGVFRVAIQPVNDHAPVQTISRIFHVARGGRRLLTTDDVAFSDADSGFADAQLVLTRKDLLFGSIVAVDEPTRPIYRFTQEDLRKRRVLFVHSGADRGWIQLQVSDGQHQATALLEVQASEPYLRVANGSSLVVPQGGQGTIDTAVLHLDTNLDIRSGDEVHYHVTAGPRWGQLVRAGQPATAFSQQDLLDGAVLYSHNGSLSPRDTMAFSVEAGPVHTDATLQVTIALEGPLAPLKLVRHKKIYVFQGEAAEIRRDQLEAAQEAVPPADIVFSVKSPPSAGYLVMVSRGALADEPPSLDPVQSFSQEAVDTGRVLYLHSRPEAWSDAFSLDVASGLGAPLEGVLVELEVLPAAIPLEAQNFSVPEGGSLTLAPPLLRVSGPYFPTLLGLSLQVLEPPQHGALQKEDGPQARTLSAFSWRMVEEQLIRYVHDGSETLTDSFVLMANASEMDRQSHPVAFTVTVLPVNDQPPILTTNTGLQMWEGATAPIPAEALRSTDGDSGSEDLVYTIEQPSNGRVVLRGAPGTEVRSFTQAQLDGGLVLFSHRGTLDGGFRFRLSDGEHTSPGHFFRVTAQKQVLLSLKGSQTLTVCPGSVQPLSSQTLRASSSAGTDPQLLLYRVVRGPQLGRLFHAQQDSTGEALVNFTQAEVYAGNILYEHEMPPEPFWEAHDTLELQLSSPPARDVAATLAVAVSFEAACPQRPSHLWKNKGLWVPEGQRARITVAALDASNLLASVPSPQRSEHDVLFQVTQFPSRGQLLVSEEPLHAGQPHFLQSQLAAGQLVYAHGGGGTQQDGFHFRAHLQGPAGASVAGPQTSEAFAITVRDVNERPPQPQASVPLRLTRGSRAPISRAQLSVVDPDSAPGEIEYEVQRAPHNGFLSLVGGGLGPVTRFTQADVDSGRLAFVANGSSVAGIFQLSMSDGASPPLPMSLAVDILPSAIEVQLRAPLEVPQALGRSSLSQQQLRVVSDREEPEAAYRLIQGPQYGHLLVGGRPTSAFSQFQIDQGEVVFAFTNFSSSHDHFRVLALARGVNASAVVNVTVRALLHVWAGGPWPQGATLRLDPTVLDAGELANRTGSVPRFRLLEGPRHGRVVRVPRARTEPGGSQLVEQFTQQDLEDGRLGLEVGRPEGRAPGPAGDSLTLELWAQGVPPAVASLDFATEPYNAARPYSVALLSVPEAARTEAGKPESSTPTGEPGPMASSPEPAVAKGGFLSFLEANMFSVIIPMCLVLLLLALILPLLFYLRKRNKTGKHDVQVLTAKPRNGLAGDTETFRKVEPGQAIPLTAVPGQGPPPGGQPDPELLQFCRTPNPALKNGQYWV
# UniProt P49711, 145-168: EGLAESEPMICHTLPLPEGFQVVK
# UniProt O60716: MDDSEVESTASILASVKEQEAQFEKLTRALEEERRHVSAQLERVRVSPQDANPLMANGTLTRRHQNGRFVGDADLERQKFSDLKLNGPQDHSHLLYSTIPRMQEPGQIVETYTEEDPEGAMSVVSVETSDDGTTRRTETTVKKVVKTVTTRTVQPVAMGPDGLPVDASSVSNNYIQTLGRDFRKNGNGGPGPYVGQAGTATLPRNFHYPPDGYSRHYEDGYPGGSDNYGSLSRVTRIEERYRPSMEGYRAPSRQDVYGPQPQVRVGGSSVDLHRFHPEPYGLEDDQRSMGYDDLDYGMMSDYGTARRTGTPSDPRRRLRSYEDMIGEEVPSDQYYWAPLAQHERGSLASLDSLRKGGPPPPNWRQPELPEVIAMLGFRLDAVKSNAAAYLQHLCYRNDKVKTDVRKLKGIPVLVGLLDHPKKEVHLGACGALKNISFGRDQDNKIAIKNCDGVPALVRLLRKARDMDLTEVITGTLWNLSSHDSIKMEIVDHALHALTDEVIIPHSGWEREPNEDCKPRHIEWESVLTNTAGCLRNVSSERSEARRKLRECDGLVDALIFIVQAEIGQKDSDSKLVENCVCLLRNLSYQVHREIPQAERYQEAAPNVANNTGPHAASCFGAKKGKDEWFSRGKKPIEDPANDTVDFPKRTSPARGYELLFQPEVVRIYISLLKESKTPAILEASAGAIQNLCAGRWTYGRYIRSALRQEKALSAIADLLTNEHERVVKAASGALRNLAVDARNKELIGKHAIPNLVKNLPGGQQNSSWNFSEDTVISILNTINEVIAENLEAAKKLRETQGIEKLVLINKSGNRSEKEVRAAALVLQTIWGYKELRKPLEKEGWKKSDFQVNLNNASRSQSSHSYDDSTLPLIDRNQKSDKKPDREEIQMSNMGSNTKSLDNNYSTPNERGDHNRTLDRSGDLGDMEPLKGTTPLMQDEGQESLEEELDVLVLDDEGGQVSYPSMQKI
# UniProt Q2NKJ3: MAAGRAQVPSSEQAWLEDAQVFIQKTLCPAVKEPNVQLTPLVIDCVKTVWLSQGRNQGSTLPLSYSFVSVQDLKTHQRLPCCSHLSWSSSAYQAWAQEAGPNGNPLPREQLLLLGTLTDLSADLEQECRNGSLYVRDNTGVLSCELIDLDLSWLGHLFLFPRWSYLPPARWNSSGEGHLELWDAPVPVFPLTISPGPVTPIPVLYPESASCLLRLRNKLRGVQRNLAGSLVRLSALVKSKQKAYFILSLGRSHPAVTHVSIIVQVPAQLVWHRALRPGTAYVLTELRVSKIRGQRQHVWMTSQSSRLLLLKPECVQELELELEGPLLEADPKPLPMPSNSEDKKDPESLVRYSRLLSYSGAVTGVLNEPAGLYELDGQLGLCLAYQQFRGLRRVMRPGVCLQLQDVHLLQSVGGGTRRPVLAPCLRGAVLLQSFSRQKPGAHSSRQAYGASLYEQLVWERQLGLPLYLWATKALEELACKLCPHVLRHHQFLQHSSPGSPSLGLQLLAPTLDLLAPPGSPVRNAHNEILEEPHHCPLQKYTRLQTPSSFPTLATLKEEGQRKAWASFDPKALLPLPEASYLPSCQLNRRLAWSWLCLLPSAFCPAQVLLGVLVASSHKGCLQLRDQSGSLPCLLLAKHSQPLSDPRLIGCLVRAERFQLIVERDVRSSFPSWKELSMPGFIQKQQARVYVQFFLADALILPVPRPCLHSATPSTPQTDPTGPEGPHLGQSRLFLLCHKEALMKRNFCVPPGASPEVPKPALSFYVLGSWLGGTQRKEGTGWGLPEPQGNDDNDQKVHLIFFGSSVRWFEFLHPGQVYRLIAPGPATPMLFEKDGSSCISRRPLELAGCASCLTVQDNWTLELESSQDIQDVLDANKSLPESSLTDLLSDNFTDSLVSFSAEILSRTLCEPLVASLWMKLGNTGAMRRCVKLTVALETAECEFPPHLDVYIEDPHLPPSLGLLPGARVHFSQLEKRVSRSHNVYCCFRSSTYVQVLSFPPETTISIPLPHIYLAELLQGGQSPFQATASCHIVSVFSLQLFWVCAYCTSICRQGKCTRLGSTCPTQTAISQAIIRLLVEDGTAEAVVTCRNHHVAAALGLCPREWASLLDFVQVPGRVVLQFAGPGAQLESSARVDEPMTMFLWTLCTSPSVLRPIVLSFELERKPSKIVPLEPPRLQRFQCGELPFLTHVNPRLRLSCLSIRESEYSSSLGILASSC
# UniProt P17812: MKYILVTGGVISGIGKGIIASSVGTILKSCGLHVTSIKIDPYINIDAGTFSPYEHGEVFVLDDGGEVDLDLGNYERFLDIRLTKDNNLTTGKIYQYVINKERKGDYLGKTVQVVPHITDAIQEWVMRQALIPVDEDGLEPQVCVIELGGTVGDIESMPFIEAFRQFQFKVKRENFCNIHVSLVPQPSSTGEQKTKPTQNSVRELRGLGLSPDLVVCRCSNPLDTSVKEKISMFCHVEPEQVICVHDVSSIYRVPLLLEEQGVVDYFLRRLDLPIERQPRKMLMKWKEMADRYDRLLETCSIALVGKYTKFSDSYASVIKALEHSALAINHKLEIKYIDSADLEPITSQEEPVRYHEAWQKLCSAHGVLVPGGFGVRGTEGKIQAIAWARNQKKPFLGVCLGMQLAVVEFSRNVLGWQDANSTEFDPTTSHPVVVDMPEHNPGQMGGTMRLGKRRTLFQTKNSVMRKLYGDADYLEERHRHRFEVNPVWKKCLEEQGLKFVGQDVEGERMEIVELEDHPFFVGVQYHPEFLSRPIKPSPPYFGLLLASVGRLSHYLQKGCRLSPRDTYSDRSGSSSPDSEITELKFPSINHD
# UniProt P55060: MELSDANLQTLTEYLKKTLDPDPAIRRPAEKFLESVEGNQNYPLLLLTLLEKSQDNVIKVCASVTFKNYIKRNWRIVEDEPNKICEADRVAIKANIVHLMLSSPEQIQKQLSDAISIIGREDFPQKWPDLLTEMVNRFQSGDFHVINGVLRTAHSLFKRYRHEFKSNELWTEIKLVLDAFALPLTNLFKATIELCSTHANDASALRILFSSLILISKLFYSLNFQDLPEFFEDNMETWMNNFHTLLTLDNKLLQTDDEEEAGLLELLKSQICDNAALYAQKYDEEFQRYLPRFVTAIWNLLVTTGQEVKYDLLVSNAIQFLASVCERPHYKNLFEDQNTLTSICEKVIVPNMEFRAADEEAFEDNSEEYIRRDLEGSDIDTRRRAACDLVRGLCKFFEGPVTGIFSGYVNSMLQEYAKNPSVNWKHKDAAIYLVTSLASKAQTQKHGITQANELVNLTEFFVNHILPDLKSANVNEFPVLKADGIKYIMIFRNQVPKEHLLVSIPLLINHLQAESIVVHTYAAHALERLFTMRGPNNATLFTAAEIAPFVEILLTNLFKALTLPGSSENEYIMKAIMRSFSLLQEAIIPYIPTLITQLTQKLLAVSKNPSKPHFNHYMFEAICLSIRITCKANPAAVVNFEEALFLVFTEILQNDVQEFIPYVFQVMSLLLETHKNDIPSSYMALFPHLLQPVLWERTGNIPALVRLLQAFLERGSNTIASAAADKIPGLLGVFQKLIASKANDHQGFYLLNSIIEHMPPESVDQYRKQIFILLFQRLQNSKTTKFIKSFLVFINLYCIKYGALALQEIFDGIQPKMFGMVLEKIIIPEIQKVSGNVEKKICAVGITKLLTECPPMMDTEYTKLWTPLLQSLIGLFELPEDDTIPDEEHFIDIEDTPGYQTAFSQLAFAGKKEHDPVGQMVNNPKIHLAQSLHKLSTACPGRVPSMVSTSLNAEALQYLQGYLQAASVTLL
# UniProt O00571, 453-475: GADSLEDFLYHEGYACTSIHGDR
# UniProt P41240: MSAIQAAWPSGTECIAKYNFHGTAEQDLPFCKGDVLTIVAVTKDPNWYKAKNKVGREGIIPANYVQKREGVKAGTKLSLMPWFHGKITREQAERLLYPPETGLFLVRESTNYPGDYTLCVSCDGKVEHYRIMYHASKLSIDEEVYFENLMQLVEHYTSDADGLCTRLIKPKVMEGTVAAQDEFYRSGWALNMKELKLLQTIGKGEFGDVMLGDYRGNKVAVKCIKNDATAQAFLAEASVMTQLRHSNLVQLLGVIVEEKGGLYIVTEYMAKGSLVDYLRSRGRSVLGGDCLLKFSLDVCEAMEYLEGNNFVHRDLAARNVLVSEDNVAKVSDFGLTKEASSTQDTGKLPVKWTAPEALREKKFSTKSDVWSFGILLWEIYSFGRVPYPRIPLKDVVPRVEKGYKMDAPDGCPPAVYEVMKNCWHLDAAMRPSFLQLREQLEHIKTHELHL
# UniProt Q8IWE4, 58-77: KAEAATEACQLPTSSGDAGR
# This is one part of the list. The data scatter; read single values as rough.
# Tests used:
# [1] = compound: ClCC(=O)N[C@@H]1CCCc2ccccc12; test: log2 mean competition ratio of IA-DTB cysteine labelling (DMSO/compound) (log2 ratio); higher = stronger cysteine engagement by compound; settings: treatment time: 4 h, cell line lysate: HEK293T
# Experimental: (§1)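 IA-DTB competitive cysteine chemoproteomics in HEK293T RIPA lysate. Lysates were treated with compound 29 or 30 at 50 or 200 µM for 4 h, then IA-DTB (500 µM, 1 h), trypsin-digested, NeutrAvidin-enriched and analysed by diaPASEF. Competition ratio = intensity DMSO / intensity compound (n=4 treated, n=64 DMSO); binding: mean log2 CR ≥ 1 and p ≤ 0.05 plus QC filters. Target is the cysteine site.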
# [2] = compound: ClCC(=O)N[C@H]1CCCc2ccccc12; test: as above; settings: treatment time: 4 h, cell line lysate: HEK293T
# Experimental: as §1
Target,log2 mean competition ratio ([1]; 50 µM),log2 mean competition ratio ([1]; 200 µM),log2 mean competition ratio ([2]; 200 µM),log2 mean competition ratio ([2]; 50 µM)
CSPG4 C533 (UniProt Q6UVK1),0.115,-0.0107,,
DDX21 C445 (UniProt Q9NR30),-0.0439,-0.271,,
DDX18 C407 (UniProt Q9NVP1),-0.0751,-0.0736,,
DAXX C245 (UniProt Q9UER7),-0.0451,-0.0273,,
CXXC1 C580 (UniProt Q9P0U4),-0.171,0.326,,
CRTAP C84 (UniProt O75718),-0.0152,0.237,,
CSDE1 C506 (UniProt O75534),-0.0121,-0.115,,
CYB5R1 C208 (UniProt Q9UHQ9),-0.191,-0.283,,
CTCF C155 (UniProt P49711),0.218,0.145,,
CYFIP1 C428,0.165,-0.654,,
CTNND1 C516 (UniProt O60716),-0.172,0.0837,,
CTC1 C837 (UniProt Q2NKJ3),-0.211,-0.0192,,
CTPS1 C218 (UniProt P17812),-0.0418,0.0595,,
DCAF5 C728 (UniProt Q96JK2),-0.059,0.245,,
CSTF3 C646 (UniProt Q12996),0.364,0.251,,
CTPS1 C491 (UniProt P17812),-0.0712,-0.0466,,
DCLRE1A C649,0.0503,0.211,,
CYP51A1 C351 (UniProt Q16850),0.367,0.00888,,
D2HGDH C198 (UniProt Q8N465),0.426,-0.00119,,
DDX39B C198,-0.109,0.0691,,
DDX20 C162 (UniProt Q9UHI6),-0.178,-0.555,,
CSE1L C85 (UniProt P55060),-0.256,0.00606,,
CTSC C448 (UniProt P53634),-0.39,-0.0856,,
DCAF7 C109 (UniProt P61962),-0.108,0.0372,,

# Shown bar-delimited: entries from further up.
Target | log2 mean competition ratio ([1]; 50 µM) | log2 mean competition ratio ([1]; 200 µM) | log2 mean competition ratio ([2]; 200 µM) | log2 mean competition ratio ([2]; 50 µM)
CYB5R1 C208 (UniProt Q9UHQ9) | -0.191 | -0.283 |  | 
CTCF C155 (UniProt P49711) | 0.218 | 0.145 |  | 
CYFIP1 C428 | 0.165 | -0.654 |  | 
CTNND1 C516 (UniProt O60716) | -0.172 | 0.0837 |  | 
CTC1 C837 (UniProt Q2NKJ3) | -0.211 | -0.0192 |  | 

# (next part)

Target,log2 mean competition ratio ([1]; 50 µM),log2 mean competition ratio ([1]; 200 µM),log2 mean competition ratio ([2]; 200 µM),log2 mean competition ratio ([2]; 50 µM)
CTU1 C290 (UniProt Q7Z7A3),0.194,0.185,,
CSTF3 C536 (UniProt Q12996),0.306,-0.192,,
DDX23 C692 (UniProt Q9BUQ8),0.275,-0.0479,,
DCXR C150 (UniProt Q7Z4W1),0.217,-0.0376,,
CXXC1 C531 (UniProt Q9P0U4),-0.0203,-0.013,,
CTBP2 C60 (UniProt P56545),-0.233,-0.0059,,
CTR9 C1052 (UniProt Q6PD62),0.0961,-0.0413,,
DDX3X C468 (UniProt O00571),0.0439,0.228,,
CUL2 C103 (UniProt Q13617),0.325,-0.0188,,
DDX6 C390 (UniProt P26196),-0.0283,-0.285,,
CTC1 C535 (UniProt Q2NKJ3),0.546,0.201,,
DAGLB C86 (UniProt Q8NCG7),-0.0443,-0.0715,,
DDX20 C524 (UniProt Q9UHI6),-0.171,0.239,,
DDX56 C185 (UniProt Q9NY93),0.521,-0.302,-0.394,
CREB5 C441,0.2,-0.13,,
CSK C290 (UniProt P41240),0.0631,0.304,,
CUL1 C355 (UniProt Q13616),-0.128,-0.146,,
DCTN6 C18 (UniProt O00399),0.0728,0.274,,
CRKL C249 (UniProt P46109),0.128,0.142,0.243,0.352
CTSC C337 (UniProt P53634),-0.0266,0.0895,-0.0265,0.0107
DDX28 C170 (UniProt Q9NUL7),-0.119,0.029,,
CRYBG3 C898 (UniProt Q68DQ2),0.139,0.0761,,
DDHD2 C470 (UniProt O94830),-0.139,-0.101,,
CTNND1 C450 (UniProt O60716),-0.0185,0.144,,

Target,log2 mean competition ratio ([1]; 50 µM),log2 mean competition ratio ([1]; 200 µM),log2 mean competition ratio ([2]; 200 µM),log2 mean competition ratio ([2]; 50 µM)
DDX5 C354 (UniProt P17844),0.0349,0.0423,,
CRYBG3 C1804 (UniProt Q68DQ2),-0.155,-0.00607,-0.0946,0.327
DCUN1D3 C66 (UniProt Q8IWE4),0.18,-0.202,-0.218,-0.0202
DCAF10 C213 (UniProt Q5QP82),-0.0181,0.0573,,
CSRP2 C58 (UniProt Q16527),-0.0906,-0.272,,
CUL2 C465 (UniProt Q13617),-0.0354,0.167,0.134,0.0724
DCTN5 C46 (UniProt Q9BTE1),0.021,-0.0663,-0.173,0.0629
DAPK3 C349 (UniProt O43293),-0.69,-0.192,-0.176,-0.0595
CTPS1 C299 (UniProt P17812),0.0935,-0.185,-0.149,-0.342
CTTNBP2 C1595,-0.0679,0.00414,,
CTSB C211 (UniProt P07858),0.00786,0.131,,
DARS2 C152 (UniProt Q6PI48),0.0451,-0.258,,
DCAF5 C349 (UniProt Q96JK2),0.296,-0.232,-0.55,-0.388
DCXR C138 (UniProt Q7Z4W1),0.139,-0.0357,,
DDX17 C447 (UniProt Q92841),-0.262,-0.127,,
CYRIB C253,0.146,-0.0568,,
CUL4B C264,-0.27,-0.0309,0.0358,-0.0031
CSE1L C272 (UniProt P55060),0.216,-0.304,,
CXorf38 C12 (UniProt Q8TB03),-0.0311,0.0761,,
DDX59 C345 (UniProt Q5T1V6),-0.22,-0.135,,
CYLD C129 (UniProt Q9NQC7),-0.288,-0.0226,0.0119,0.247
DAB2IP C1065 (UniProt Q5VWQ8),-0.196,-0.0505,,
DDX3X C341 (UniProt O00571),0.0661,0.0252,,
DDX23 C791 (UniProt Q9BUQ8),-0.256,0.0964,-0.235,-0.229
